# The other results are listed elsewhere or left out.
# Columns and labels:
# Experiment in all cases: glycan array binding signal (z-score within array); higher = stronger binding
# Details in all cases: glycan notation: IUPAC condensed, linker removed
# GlcNAc(b1-3)Gal(b1-4)Glc = target: GlcNAc(b1-3)Gal(b1-4)Glc
# Outline: (§1)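 Glycan array data were curated from 3228 arrays in the Consortium for Functional Glycomics database and kept only where the protein sequence was available. Glycan names were converted to IUPAC-condensed notation, and columns mapping to the same glycan were averaged. The binding signal is a within-array Z-score, averaged across arrays of the same protein sequence at different concentrations or buffers and across linkers. Negative Z-scores can be read as non-binding.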
# [1] = target: GlcNAc(b1-3)Gal(b1-4)GlcNAc
# Outline: as §1
# [2] = target: GlcNAc(b1-3)Gal(b1-4)GlcNAc(b1-2)Man(a1-3)[GlcNAc(b1-3)Gal(b1-4)GlcNAc(b1-2)Man(a1-6)]Man(b1-4)GlcNAc(b1-4)GlcNAc
# Outline: as §1
# [3] = target: GlcNAc(b1-3)Gal(b1-4)GlcNAc(b1-2)Man(a1-3)[GlcNAc(b1-3)Gal(b1-4)GlcNAc(b1-2)Man(a1-6)]Man(b1-4)GlcNAc(b1-4)[Fuc(a1-6)]GlcNAc
# Outline: as §1
# [4] = target: GlcNAc(b1-3)Gal(b1-4)GlcNAc(b1-2)[GlcNAc(b1-3)Gal(b1-4)GlcNAc(b1-6)]Man(a1-6)[GlcNAc(b1-3)Gal(b1-4)GlcNAc(b1-2)Man(a1-3)]Man(b1-4)GlcNAc(b1-4)GlcNAc
# Outline: as §1
# [5] = target: GlcNAc(b1-3)Gal(b1-4)GlcNAc(b1-3)Gal(b1-4)GlcNAc
# Outline: as §1
# [6] = target: GlcNAc(b1-3)Gal(b1-4)GlcNAc(b1-3)Gal(b1-4)GlcNAc(b1-2)Man(a1-3)[GlcNAc(b1-3)Gal(b1-4)GlcNAc(b1-3)Gal(b1-4)GlcNAc(b1-2)Man(a1-6)]Man(b1-4)GlcNAc(b1-4)GlcNAc
# Outline: as §1
# [7] = target: GlcNAc(b1-3)Gal(b1-4)GlcNAc(b1-3)Gal(b1-4)GlcNAc(b1-2)Man(a1-3)[GlcNAc(b1-3)Gal(b1-4)GlcNAc(b1-3)Gal(b1-4)GlcNAc(b1-2)Man(a1-6)]Man(b1-4)GlcNAc(b1-4)[Fuc(a1-6)]GlcNAc
# Outline: as §1
# [8] = target: GlcNAc(b1-3)Gal(b1-4)GlcNAc(b1-3)Gal(b1-4)GlcNAc(b1-2)[GlcNAc(b1-3)Gal(b1-4)GlcNAc(b1-3)Gal(b1-4)GlcNAc(b1-6)]Man(a1-6)[GlcNAc(b1-3)Gal(b1-4)GlcNAc(b1-3)Gal(b1-4)GlcNAc(b1-2)Man(a1-3)]Man(b1-4)GlcNAc(b1-4)[Fuc(a1-6)]GlcNAc
# Outline: as §1
# [9] = target: GlcNAc(b1-3)Gal(b1-4)GlcNAc(b1-3)Gal(b1-4)GlcNAc(b1-3)Gal(b1-4)GlcNAc(b1-2)Man(a1-3)[GlcNAc(b1-3)Gal(b1-4)GlcNAc(b1-3)Gal(b1-4)GlcNAc(b1-3)Gal(b1-4)GlcNAc(b1-2)Man(a1-6)]Man(b1-4)GlcNAc(b1-4)GlcNAc
# Outline: as §1
# [10] = target: GlcNAc(b1-3)Gal(b1-4)GlcNAc(b1-3)Gal(b1-4)GlcNAc(b1-3)Gal(b1-4)GlcNAc(b1-2)Man(a1-3)[GlcNAc(b1-3)Gal(b1-4)GlcNAc(b1-3)Gal(b1-4)GlcNAc(b1-3)Gal(b1-4)GlcNAc(b1-2)Man(a1-6)]Man(b1-4)GlcNAc(b1-4)[Fuc(a1-6)]GlcNAc
# Outline: as §1
# [11] = target: GlcNAc(b1-3)Gal(b1-4)GlcNAc(b1-3)Gal(b1-4)GlcNAc(b1-3)Gal(b1-4)GlcNAc(b1-2)[GlcNAc(b1-3)Gal(b1-4)GlcNAc(b1-3)Gal(b1-4)GlcNAc(b1-3)Gal(b1-4)GlcNAc(b1-6)]Man(a1-6)[GlcNAc(b1-3)Gal(b1-4)GlcNAc(b1-3)Gal(b1-4)GlcNAc(b1-3)Gal(b1-4)GlcNAc(b1-2)Man(a1-3)]Man(b1-4)GlcNAc(b1-4)[Fuc(a1-6)]GlcNAc
# Outline: as §1
# [12] = target: GlcNAc(b1-3)Gal(b1-4)GlcNAc(b1-3)Gal(b1-4)GlcNAc(b1-3)Gal(b1-4)GlcNAc(b1-3)Gal(b1-4)GlcNAc(b1-2)Man(a1-3)[GlcNAc(b1-3)Gal(b1-4)GlcNAc(b1-3)Gal(b1-4)GlcNAc(b1-3)Gal(b1-4)GlcNAc(b1-3)Gal(b1-4)GlcNAc(b1-2)Man(a1-6)]Man(b1-4)GlcNAc(b1-4)GlcNAc
# Outline: as §1
# [13] = target: GlcNAc(b1-3)Gal(b1-4)GlcNAc(b1-3)Gal(b1-4)GlcNAc(b1-3)Gal(b1-4)GlcNAc(b1-3)Gal(b1-4)GlcNAc(b1-2)Man(a1-3)[GlcNAc(b1-3)Gal(b1-4)GlcNAc(b1-3)Gal(b1-4)GlcNAc(b1-3)Gal(b1-4)GlcNAc(b1-3)Gal(b1-4)GlcNAc(b1-2)Man(a1-6)]Man(b1-4)GlcNAc(b1-4)[Fuc(a1-6)]GlcNAc
# Outline: as §1
# [14] = target: GlcNAc(b1-3)Gal(b1-4)GlcNAc(b1-3)Gal(b1-4)GlcNAc(b1-3)Gal(b1-4)GlcNAc(b1-3)Gal(b1-4)GlcNAc(b1-2)[GlcNAc(b1-3)Gal(b1-4)GlcNAc(b1-3)Gal(b1-4)GlcNAc(b1-3)Gal(b1-4)GlcNAc(b1-3)Gal(b1-4)GlcNAc(b1-6)]Man(a1-6)[GlcNAc(b1-3)Gal(b1-4)GlcNAc(b1-3)Gal(b1-4)GlcNAc(b1-3)Gal(b1-4)GlcNAc(b1-3)Gal(b1-4)GlcNAc(b1-2)Man(a1-3)]Man(b1-4)GlcNAc(b1-4)[Fuc(a1-6)]GlcNAc
# Outline: as §1
# [15] = target: GlcNAc(b1-3)Gal(b1-4)GlcNAc(b1-3)Gal(b1-4)GlcNAc(b1-3)GalNAc
# Outline: as §1
# [16] = target: GlcNAc(b1-3)Gal(b1-4)GlcNAc(b1-3)GalNAc
# Outline: as §1
# [17] = target: GlcNAc(b1-3)Gal(b1-4)GlcNAc(b1-3)[GlcNAc(b1-3)Gal(b1-4)GlcNAc(b1-3)]GalNAc
# Outline: as §1
# [18] = target: GlcNAc(b1-3)Gal(b1-4)GlcNAc(b1-6)[Gal(b1-3)]GalNAc
# Outline: as §1
# [19] = target: GlcNAc(b1-3)Gal(b1-4)GlcNAc(b1-6)[GlcNAc(b1-3)Gal(b1-3)]GalNAc
# Outline: as §1
# [20] = target: GlcNAc(b1-3)Gal(b1-4)GlcNAc(b1-6)[GlcNAc(b1-3)]Gal(b1-4)GlcNAc
# Outline: as §1
# GlcNAc(b1-3)GalNAc = target: GlcNAc(b1-3)GalNAc
# Outline: as §1
# GlcNAc(b1-3)Man = target: GlcNAc(b1-3)Man
# Outline: as §1
# [21] = target: GlcNAc(b1-3)[GlcNAc(b1-4)][GlcNAc(b1-6)]GlcNAc
# Outline: as §1
# [22] = target: GlcNAc(b1-3)[GlcNAc(b1-6)]Gal(b1-4)GlcNAc
# Outline: as §1
# [23] = target: GlcNAc(b1-3)[GlcNAc(b1-6)]GalNAc
# Outline: as §1
# [24] = target: GlcNAc(b1-4)Gal(b1-4)GlcNAc
# Outline: as §1
# GlcNAc(b1-4)GlcNAc = target: GlcNAc(b1-4)GlcNAc
# Outline: as §1
# [25] = target: GlcNAc(b1-4)GlcNAc(b1-4)GlcNAc
# Outline: as §1
# [26] = target: GlcNAc(b1-4)GlcNAc(b1-4)GlcNAc(b1-4)GlcNAc(b1-4)GlcNAc
# Outline: as §1
# [27] = target: GlcNAc(b1-4)GlcNAc(b1-4)GlcNAc(b1-4)GlcNAc(b1-4)GlcNAc(b1-4)GlcNAc
# Outline: as §1
# [28] = target: GlcNAc(b1-4)[GlcNAc(b1-6)]GalNAc
# Outline: as §1
# [29] = target: GlcNAc(b1-6)Gal(b1-4)GlcNAc
# Outline: as §1
# GlcNAc(b1-6)GalNAc = target: GlcNAc(b1-6)GalNAc
# Outline: as §1
# [30] = target: GlcNAc6S(b1-3)Gal(b1-4)GlcNAc
# Outline: as §1
# Kdn(a2-3)Gal(b1-3)GalNAc = target: Kdn(a2-3)Gal(b1-3)GalNAc
# Outline: as §1
# Kdn(a2-3)Gal(b1-3)GlcNAc = target: Kdn(a2-3)Gal(b1-3)GlcNAc
# Outline: as §1
# Kdn(a2-3)Gal(b1-4)Glc = target: Kdn(a2-3)Gal(b1-4)Glc
# Outline: as §1
# Kdn(a2-3)Gal(b1-4)GlcNAc = target: Kdn(a2-3)Gal(b1-4)GlcNAc
# Outline: as §1
# [31] = target: Kdn(a2-3)Gal(b1-4)[Fuc(a1-3)]GlcNAc
# Outline: as §1
# Kdn(a2-6)Gal(b1-4)GlcNAc = target: Kdn(a2-6)Gal(b1-4)GlcNAc
# Outline: as §1
# [32] = target: Man(a1-2)Man(a1-2)Man(a1-3)Man
# Outline: as §1
# [33] = target: Man(a1-2)Man(a1-2)Man(a1-6)[Man(a1-3)]Man
# Outline: as §1
# Man(a1-2)Man(a1-3)Man = target: Man(a1-2)Man(a1-3)Man
# Outline: as §1
# [34] = target: Man(a1-2)Man(a1-3)[Man(a1-2)Man(a1-6)]Man
# Outline: as §1
binder,measurement,setting,value
FimA-N2 (Actinomyces oris) (protein) MHHHHHHSSGVDLGTENLYFQSNAWIYDVNVYPKNEAIDVDKTIQAQKLNGYGVGSLIKFPVESTAPTLDAKSFYKYFQLKDTLDERLSEVTATDVSLEGTPLQPTDYKVETKQQTVTVTFTAEGLKKIKAAPGKKVSAVFQGKVTKAGNGAITNRAQVISDTLYAEQPPTPETPPTDPENPPTSDEVISRWGDLSIKKVDTHQQGQTKA,glycan array binding signal (z-score),GlcNAc(b1-3)Gal(b1-4)Glc,0.135
same,glycan array binding signal (z-score),[1],0.299
same,glycan array binding signal (z-score),[2],-0.627
same,glycan array binding signal (z-score),[3],1.07
same,glycan array binding signal (z-score),[4],0.771
same,glycan array binding signal (z-score),[5],0.008
same,glycan array binding signal (z-score),[6],0.158
same,glycan array binding signal (z-score),[7],-0.07
same,glycan array binding signal (z-score),[8],0.41
same,glycan array binding signal (z-score),[9],-0.122
same,glycan array binding signal (z-score),[10],1.93
same,glycan array binding signal (z-score),[11],-0.448
same,glycan array binding signal (z-score),[12],-0.523
same,glycan array binding signal (z-score),[13],-0.772
same,glycan array binding signal (z-score),[14],0.564
same,glycan array binding signal (z-score),[15],-1.1
same,glycan array binding signal (z-score),[16],-0.701
same,glycan array binding signal (z-score),[17],-0.062
same,glycan array binding signal (z-score),[18],-0.726
same,glycan array binding signal (z-score),[19],-0.947
same,glycan array binding signal (z-score),[20],-0.903
same,glycan array binding signal (z-score),GlcNAc(b1-3)GalNAc,-0.104
same,glycan array binding signal (z-score),GlcNAc(b1-3)Man,-0.206
same,glycan array binding signal (z-score),[21],0.765
same,glycan array binding signal (z-score),[22],-0.712
same,glycan array binding signal (z-score),[23],-0.322
same,glycan array binding signal (z-score),[24],0.652
same,glycan array binding signal (z-score),GlcNAc(b1-4)GlcNAc,0.476
same,glycan array binding signal (z-score),[25],-1.1
same,glycan array binding signal (z-score),[26],0.514
same,glycan array binding signal (z-score),[27],0.47
same,glycan array binding signal (z-score),[28],-0.713
same,glycan array binding signal (z-score),[29],-0.782
same,glycan array binding signal (z-score),GlcNAc(b1-6)GalNAc,-0.16
same,glycan array binding signal (z-score),[30],-0.705
same,glycan array binding signal (z-score),Kdn(a2-3)Gal(b1-3)GalNAc,-0.631
same,glycan array binding signal (z-score),Kdn(a2-3)Gal(b1-3)GlcNAc,-1.43
same,glycan array binding signal (z-score),Kdn(a2-3)Gal(b1-4)Glc,-0.37
same,glycan array binding signal (z-score),Kdn(a2-3)Gal(b1-4)GlcNAc,-1.45
same,glycan array binding signal (z-score),[31],1.21
same,glycan array binding signal (z-score),Kdn(a2-6)Gal(b1-4)GlcNAc,-0.141
same,glycan array binding signal (z-score),[32],-0.447
same,glycan array binding signal (z-score),[33],0.067
same,glycan array binding signal (z-score),Man(a1-2)Man(a1-3)Man,0.075
same,glycan array binding signal (z-score),[34],-1.01

# Some of the entries so far, as tab-separated lines:
binder	measurement	setting	value
FimA-N2 (Actinomyces oris) (protein) MHHHHHHSSGVDLGTENLYFQSNAWIYDVNVYPKNEAIDVDKTIQAQKLNGYGVGSLIKFPVESTAPTLDAKSFYKYFQLKDTLDERLSEVTATDVSLEGTPLQPTDYKVETKQQTVTVTFTAEGLKKIKAAPGKKVSAVFQGKVTKAGNGAITNRAQVISDTLYAEQPPTPETPPTDPENPPTSDEVISRWGDLSIKKVDTHQQGQTKA	glycan array binding signal (z-score)	[8]	0.41
same	glycan array binding signal (z-score)	[9]	-0.122
same	glycan array binding signal (z-score)	[17]	-0.062
same	glycan array binding signal (z-score)	[24]	0.652
same	glycan array binding signal (z-score)	[30]	-0.705
same	glycan array binding signal (z-score)	Kdn(a2-3)Gal(b1-3)GalNAc	-0.631
same	glycan array binding signal (z-score)	Kdn(a2-3)Gal(b1-4)GlcNAc	-1.45
same	glycan array binding signal (z-score)	[31]	1.21
same	glycan array binding signal (z-score)	Kdn(a2-6)Gal(b1-4)GlcNAc	-0.141
same	glycan array binding signal (z-score)	[32]	-0.447
same	glycan array binding signal (z-score)	Man(a1-2)Man(a1-3)Man	0.075

# From the supplement of paper PMC8728848
